From PubChem BioAssay AID2685 (National Center for Advancing Translational Sciences (NCATS), 2010)
In all, about 320,000 compounds went through this assay and about 2,100 (0.66%) were called active. This list was built around the results that the source calls inconclusive (neither active nor inactive); the mix of calls is not that of the screen. The call rests on the fitted dose curve; in most records, active means well fitted inhibition curve with a large enough effect in the signal ratio, with a control signal flat (not every such curve was filed as active); inconclusive means small, poorly fitted or top-dose-only effect, or effect the other way, or a change in a side signal; inactive means flat fitted curve, though single readings scatter; the % refers to the signal ratio. A potency beside an inconclusive call is a rough fit, not a confirmed value.

Assay: qHTS Assay for Lipid Storage Modulators in Drosophila S3 Cells
Conditions: BODIPY lipid droplet fluorescence, 18-24 h, cells fed with added oleic acid; lipid storage change, negative = inhibition: at 46.1 µM (top of the series) unless noted
How it was run: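 Drosophila S3 cells loaded with oleic acid (400 uM, as added) and compounds at several concentrations; lipid droplets imaged by 488-nm laser-scanning cytometry, 500–530 nm intensity and object ratio to cell channel. Percent activity normalized to 20 uM Triacsin C.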
On the % scale 0 is the no-effect control and ±100 the full control effect; potency means the concentration at half of the fitted maximal effect.

| SMILES | lipid storage change, negative = inhibition | Potency |
| --- | --- | --- |
| CCCNS(=O)(=O)c1ccc(OCC(=O)N(C)Cc2ccccc2)cc1 | inconclusive: 9.48% |  |
| CCOc1ccc(N(CC(=O)NC2CCCCC2)C(=O)CCC(=O)Nc2cc(C)ccn2)cc1 | inconclusive: 144% |  |
| CNC(=O)COC(=O)c1cc2c(s1)CCCC2 | inconclusive: 14% |  |
| COc1ccc2c(c1OC)C(=O)c1ccccc1C2=O |  | inconclusive: 2060 nM [activator, full curve] |
| Cc1ccc(S(=O)(=O)CCc2nc3ccccc3s2)cc1 | inactive: 3.52% |  |
| COCCn1cc(C(=O)N2CCC(C)CC2)c2c3ccccc3n(C)c2c1=O | inconclusive: -23.1% |  |
| CCC(=O)N1CCN(c2nc(C)nc3sc(C)c(C)c23)CC1 |  | inconclusive: 6510 nM [activator, partial curve] |
| CN1CCN(S(=O)(=O)c2ccc(Sc3nc4ccccc4[nH]3)c3nsnc23)CC1 |  | inconclusive: 8200 nM [activator, partial curve, poor fit] |
| CCCOc1ccc(N2C(=O)CC(N3CCN(CCN=CC4C(=O)CC(C)(C)CC4=O)CC3)C2=O)cc1 (stereo not drawn) | inconclusive: -23.7% |  |
| O=C(O)CCNC(=O)c1ccccc1 | inconclusive: -5.29% |  |
| CCn1cc(-c2ccnc3cc(C(=O)O)nn23)c(C)n1 | inconclusive: 0.472% |  |
| CCNC(=S)N(Cc1ccco1)Cc1cc2cc3c(cc2[nH]c1=O)OCCO3 | inconclusive: 16.8% |  |
| CC1CC(C)CN(C(=O)CNC(=O)c2sc3ccccc3c2Cl)C1 (stereo not drawn) |  | active: 1460 nM |
| O=C(NCc1cccnc1)Nc1cc(Cl)cc(Cl)c1 | inconclusive: -93.9% |  |
| CSc1nc2cc3c(cc2n1C(=O)c1ccc(C)cc1)OCCO3 |  | inconclusive: 29100 nM [falling, single point] |
| O=C(CN(c1cccc(C(F)(F)F)c1)S(=O)(=O)c1ccccc1)N1CCOCC1 | inconclusive: 38.2% |  |
| COc1cccc(-n2c(SCC(=O)N3CCc4ccccc43)nnc2-c2c[nH]c3ccccc23)c1 | inconclusive: 16.4% |  |
| COc1ccccc1CNC(=O)CN1CCN(c2ccc(C(C)=O)cc2)CC1 | inconclusive: 31.2% |  |
| Cc1ccccc1-c1nc(S(=O)(=O)c2ccc(Br)cc2)c(NCc2cccnc2)o1 | inconclusive: 0.364% |  |
| CCCOc1ccc(/C=C/C(=O)OCC(=O)N(C)c2c(N)n(Cc3ccccc3)c(=O)[nH]c2=O)cc1OCC | inconclusive: -15.2% |  |
| CCCOc1ncnc2c1sc1nc3c(cc12)COC(C)(C)C3 | inconclusive: 25.7% |  |
| CC(C)(C)c1ccc(OCC(O)CSc2ncn[nH]2)cc1 (stereo not drawn) | inconclusive: 348% |  |
| CC(=O)c1cccc(NC(=O)c2ccc(C)c(S(=O)(=O)N3CCOCC3)c2)c1 | inconclusive: -16.7% |  |
| O=C(Nc1ccccc1)C12CC3CC(C1)CC(n1cnc([N+](=O)[O-])n1)(C3)C2 | inconclusive: 18.3% |  |
| O=C(Nc1ccc(Cl)c(S(=O)(=O)N2CCOCC2)c1)c1ccc(OCC2CCCO2)cc1 (stereo not drawn) | inconclusive: 20.3% |  |
| CCOC(=O)C1=C(O)/C(=C/c2ccc(OCC(=O)O)c(OC)c2)SC1=Nc1ccc(OC)cc1 | inconclusive: 86.1% |  |

| SMILES | lipid storage change, negative = inhibition | Potency |
| --- | --- | --- |
| CCOC(=O)C1CCN(CCC(=O)Nc2ccccc2Cl)CC1 | inconclusive: 7.73% |  |
| COc1cccc(CNC(=O)C2CCCN(S(=O)(=O)N3CC(C)CC(C)C3)C2)c1 (stereo not drawn) |  | inconclusive: 820 nM [activator, partial curve] |
| COc1ccc(OC)c(CN2CCC(N3CCC(C(=O)NC4CC4)CC3)CC2)c1 | inconclusive: -0.952% |  |
| Nc1nnc(Cc2ccc(Cl)cc2Cl)s1 |  | inconclusive: 1300 nM [falling, full curve] |
| COc1ccc(NS(=O)(=O)c2ccc(C)c(NC(=O)C3CCCO3)c2)cc1 (stereo not drawn) | inconclusive: 16.6% |  |
| COc1ccc(/C=N/NC(=O)C2C(=O)NCC2c2ccccc2)c(OC)c1 (stereo not drawn) | inconclusive: 0.911% |  |
| COc1ccc(-n2nnnc2CNC(=O)c2ccc(S(=O)(=O)N3CCOCC3)cc2)cc1 | inconclusive: -7.19% |  |
| CCCCCCn1nc(C(=O)OCC(=O)NC2CCS(=O)(=O)C2)c2ccccc2c1=O (stereo not drawn) |  | inconclusive: 5.2 nM [activator, full curve, poor fit] |
| C=CCN1C(=O)C(Cc2ccc(OC)cc2)SC1=Nc1ccc(C(=O)O)cc1 (stereo not drawn) | inconclusive: -80.4% |  |
| CC(C)c1ccc(C2(C)NC(=O)N(CC(=O)NCC3COc4ccccc4O3)C2=O)cc1 (stereo not drawn) | inconclusive: -28.3% |  |
| O=C(Cn1nnc(-c2ccccc2)n1)NCc1ccccc1 | inconclusive: -13.2% |  |
| Cn1nccc1NC(=O)NC(=O)c1c(Cl)cccc1Cl | inconclusive: -17.1% |  |
| Cc1ccc(C)c(N2CCN(C(=O)c3ccc4c(c3)c(C)c(C)n4C)CC2)c1 | inconclusive: 32.4% |  |
| Cc1ccc(S(=O)(=O)n2nc(-c3cccnc3)nc2N)cc1 | inconclusive: 37.2% |  |
| CCOC(=O)c1oc2ccccc2c1NC(=O)CN1CCN(C)CC1 | inconclusive: -27.4% |  |
| S=C(Nc1ccc(Cl)cc1)c1nc2ccccc2[nH]1 | inconclusive: 8.69% |  |
| COc1ccc(C(=O)NCc2nnc(SCC(=O)N3CCC(C)CC3)o2)cc1 | inconclusive: 27.6% |  |
| Cc1ccc(/C=C/C(=O)O)cc1S(=O)(=O)Nc1ccccc1C(=O)O | inconclusive: 11.4% [at 9.22 µM] |  |
| Cc1ccc(C(=O)Nc2cccc(NC(=O)CN3CCCCC3)c2)cc1 |  | inconclusive: 164 nM [activator, full curve, poor fit] |
| CCc1ccccc1NC(=O)CNC(=O)CNC(=O)C1CCCCC1 | inconclusive: -4.56% |  |
| Cc1c(C(C)(C(=O)O)c2c(C)n(C)c3ccccc23)c2ccccc2n1C | inconclusive: 7.34% |  |
| CCOC(=O)N1CCN(C(=O)c2cccc(F)c2)CC1 | inconclusive: -22.3% |  |
| CN1CCN(C(=O)c2ccc(NS(=O)(=O)c3cccc([N+](=O)[O-])c3)cc2)CC1 | inconclusive |  |
| COc1ccc(/C=N/NC(=O)c2ccoc2C)cc1OC | inconclusive: 23.2% |  |
| CC(C)CC(=O)O/N=C1\C(=O)N(Cc2ccc(Cl)cc2)c2ccc([N+](=O)[O-])cc21 |  | inconclusive: 20600 nM [cytotoxic, single point] |
| CC(C(=O)NCC1CCCO1)c1ccc([N+](=O)[O-])cc1 (stereo not drawn) | inconclusive: -43.5% [cytotoxic] [at 0.369 µM] |  |

| SMILES | lipid storage change, negative = inhibition | Potency |
| --- | --- | --- |
| O=C(O)CCC(=O)Nc1ccc(OCC(=O)O)cc1 | inconclusive: -24.5% |  |
| Cc1ccn2c(CNCc3cnn(C)c3)c(C(=O)N3CCCCCC3)nc2c1 |  | inconclusive: 231 nM [falling, full curve] |
| COc1ccc(OCC#CCN2CC(C)OC(C)C2)cc1 (stereo not drawn) | inconclusive: -2.81% |  |
| O=C(OCc1ccccc1)Oc1cncc(C(=O)O)c1 | inconclusive: -16.8% |  |
| COc1ccc(OCC(=O)Nc2cccc(NC(=O)COc3ccc(OC)cc3)n2)cc1 | inconclusive: 8.54% |  |
| O=C(CSc1nnnn1-c1ccccc1)Nc1ncc(Cc2cccc(Cl)c2Cl)s1 |  | inconclusive: 7310 nM [activator, partial curve] |
| O=[N+]([O-])c1ccc(S(=O)(=O)Nc2cccc(-c3ccc(N4CCOCC4)nn3)c2)cc1 |  | inconclusive: 9200 nM [rising, partial curve] |
| O=C(Nc1ccc2ncccc2c1)c1ccccc1 | inconclusive: 159% |  |
| COc1ccccc1NC(=O)CSc1nnc(C)n1Cc1ccccc1 | inconclusive: 23.2% |  |
| COCCNC(=O)C(c1ccc(OC)cc1)N(CCOC)C(=O)CCC(=O)Nc1nccs1 (stereo not drawn) |  | inconclusive: 29100 nM [activator, single point] |
| Nc1nonc1-n1nnc(C(=O)N/N=C/c2ccncc2)c1CSc1ccc(Cl)cc1 | inconclusive: -7.73% |  |
| CCOC(=O)C1CCN(c2cc3c(cc2NC(=O)c2ccccc2Br)n(C)c(=O)n3C)CC1 |  | inconclusive: 3660 nM [falling, full curve] |
| O=C(Nc1nc(-c2ccccc2)c(-c2ccccc2)s1)c1ccc(S(=O)(=O)N2CCCC2)cc1 | inconclusive: -7.41% |  |
| CC1CCCC(NC(=O)COC(=O)c2cccc(S(=O)(=O)N3CCCCC3)c2)C1C (stereo not drawn) |  | inconclusive: 4.6 nM [activator, full curve, poor fit] |
| COc1ccc(Cl)cc1-c1nc(-c2ccc(Br)o2)no1 | inconclusive: -4.72% |  |
| O=C(NCc1ccccc1)Nc1cccn(Cc2cccc(F)c2)c1=O | inconclusive: 21.1% |  |
| Cc1ccc2cccc(NC(=O)c3ccc(Br)o3)c2n1 |  | inconclusive: 206 nM [activator, full curve] |
| CCOc1ccc(CC(=O)N2N=C(C)CC2(O)C(F)(F)F)cc1 (stereo not drawn) | inconclusive: 19.9% |  |
| CN(C)S(=O)(=O)c1cccc(NC(=O)c2ccc3nccnc3c2)c1 |  | inconclusive: 1840 nM [activator, full curve, poor fit] |
| Cc1ccn2cc(CNS(=O)(=O)c3cccs3)nc2c1 | inconclusive: 16.5% |  |
| COc1ccc(-c2cn3cccnc3n2)cc1 | inconclusive: 29.7% |  |
| Cc1[nH]n(-c2ccccc2)c(=O)c1C(=O)Nc1ccccc1 |  | inconclusive: 651 nM [activator, full curve, poor fit] |
| CC(=O)NC(=C(Cl)Cl)S(=O)(=O)c1ccccc1 | inconclusive: -12.1% |  |
| Cc1ccc(S(=O)(=O)NCC(NCc2ccc(F)cc2)c2ccccc2)cc1 (stereo not drawn) | inconclusive |  |
| Nn1c(C2CCCCC2)nc2ccccc2c1=O | inconclusive: -13.1% |  |
| CC(=O)c1ccc(N2CCN(C(=O)c3ccc(NC(=O)C4CCCO4)cc3)CC2)cc1 (stereo not drawn) | inconclusive: 108% |  |

Record cards, as listed above:
CCOC(=O)C1CCN(c2cc3c(cc2NC(=O)c2ccccc2Br)n(C)c(=O)n3C)CC1 reads Potency: inconclusive: 3660 nM [falling, full curve]
CC1CCCC(NC(=O)COC(=O)c2cccc(S(=O)(=O)N3CCCCC3)c2)C1C (stereo not drawn) reads Potency: inconclusive: 4.6 nM [activator, full curve, poor fit]
O=C(Nc1nc(-c2ccccc2)c(-c2ccccc2)s1)c1ccc(S(=O)(=O)N2CCCC2)cc1 reads lipid storage change, negative = inhibition: inconclusive: -7.41%
Cc1ccn2c(CNCc3cnn(C)c3)c(C(=O)N3CCCCCC3)nc2c1 reads Potency: inconclusive: 231 nM [falling, full curve]
